The campaign covered roughly 340,000 compounds. About 170 (0.05%) were called active. This list was built around the results that the source calls inconclusive (neither active nor inactive); the mix of calls is not that of the screen. The call rests on the fitted dose curve; in most records, active means well fitted inhibition curve with a large enough effect in the signal ratio, with a control signal flat (not every such curve was filed as active); inconclusive means small, poorly fitted or top-dose-only effect, or effect the other way, or a change in a side signal; inactive means flat fitted curve, though single readings scatter; the % refers to the signal ratio. Potencies beside an inconclusive call are fits to weak or partial responses and may not hold up.
Assay: qHTS Assay to Find Inhibitors of Chronic Active B-Cell Receptor Signaling;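 on activity change, negative = inhibition: plate controls were basal doxycycline-induced cells for no effect and cells given 10 µM MG132 for full effect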
Details: ABC-DLBCL IkBa-CBG/CBR reporter, luminescence ratio (green luciferase fused to IkBa over red control in TMD8 lymphoma cells), 4 h; activity change, negative = inhibition: at 46.1 µM (top of the series) unless noted
Outline: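 TMD8 ABC-DLBCL cells carrying doxycycline-inducible green luciferase fused to IkappaBalpha plus unfused red luciferase were exposed to compounds (up to 46 uM) for 4 hrs at 37C. Activity came from the overlap-corrected green/red luminescence ratio.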
Potency means the concentration at half of the fitted maximal effect.

SMILES	activity change, negative = inhibition	Potency
CCn1c(-c2csc(C(C)C)c2)n[nH]c1=S	inconclusive: -4.75%	
CCOCCCNC(=S)NCCCNc1nc2c(C)cc(C)cc2cc1C#N	inactive	
COc1ccc(NC(=S)N/N=C/c2ccc(F)c(F)c2)cc1	inconclusive: -19.1%	
O=C(c1ccc(COc2c(F)c(F)c(F)c(F)c2F)o1)N1CCN(Cc2ccc3c(c2)OCO3)CC1		inconclusive: 0.58 µM [falling, full curve, poor fit]
Fc1ccc(CNC(=S)Nc2cccc(Cl)c2)cc1	inactive	
CC1CN/C(=C\C(=O)c2ccccc2)C(=O)N1 (stereo unspecified)		inconclusive: 3.55 µM [rising, partial curve, poor fit]
CCCCn1c(N)c(N(CC(C)C)C(=O)C2CC(=O)N(c3ccc4c(c3)OCCO4)C2)c(=O)[nH]c1=O (stereo unspecified)	inactive	
Cc1onc(-c2c(F)cccc2Cl)c1C(=O)Nc1nc2ccccc2[nH]1		inconclusive: 29.1 µM [falling, single point]
CCN(CC)C(=O)COc1ccc(-c2nnc(N3CCCCC3)c3ccccc23)cc1	inconclusive: 5.91%	
NNC(=O)c1cc(-c2cccs2)nc2ccccc12		inconclusive: 10 µM [cytotoxic, partial curve]
COc1cccc(-n2nc(-c3ccnn3-c3cccc(Cl)c3)c(=O)n(C)c2=O)c1	inactive	
CC1(C)[C@@H](O)CC[C@]2(C)[C@H]3C(=O)C=C4[C@@H]5C[C@@](C)(C(=O)O)CC[C@]5(C)CC[C@@]4(C)[C@]3(C)CC[C@@H]12	inactive	
CC(C)Sc1nc2c(c(=O)[nH]c(=O)n2C)n1Cc1ccc(Cl)cc1	inactive	
Cc1ncc(S(=O)(=O)c2ccc(Cl)cc2)c(-c2ccccc2)n1		inconclusive: 0.0651 µM [falling, full curve, poor fit]
CC(=O)c1cccc(NC(=O)c2cc(-c3ccc(C)cc3)on2)c1	inconclusive: 3.02%	
O=C(NCC(c1cccnc1)N1CCN(c2ccccc2)CC1)OCc1ccccc1 (stereo unspecified)	inactive	
CCCCn1c(N)c(N(Cc2ccccc2OC)C(=O)C(C)C)c(=O)[nH]c1=O	inactive	
Cc1ccccc1N1C(=O)C(Oc2ccc(Cl)cc2)C1CNCCCOC(C)C (stereo unspecified)	inactive	
O=C(COc1cccc2cccnc12)Nc1nccs1		inconclusive: 35.5 µM [rising, single point]
CCCCn1c(N)c(N(CCOC)C(=O)c2cc(-c3ccc(OC)cc3)nc3ccccc23)c(=O)[nH]c1=O	inactive	
O=C(CCC1CCCC1)NCCS(=O)(=O)N1CCN(c2ccccc2F)CC1	inconclusive: 4.53%	
COc1ccc(NC(=O)C2CCN(c3cc(C)nc(-c4ccccc4)n3)CC2)cc1	inconclusive: -3.51%	
CC(C)CCCN1C(Nc2ccccc2)=NC[C@@H]1CC(C)C	inactive	
CC1CCN(S(=O)(=O)c2ccc(NC(=O)C3CSC4(C)CCC(=O)N34)cc2)CC1 (stereo unspecified)	inactive	
CN(C)c1ccnc(SCc2ccccc2Cl)c1C#N		inconclusive: 28.2 µM [falling, single point]
c1ccc(-c2nc(N3CCOCC3)c3ccccc3n2)nc1	inconclusive: 4.01%	

SMILES	activity change, negative = inhibition	Potency
Cc1ccc(S(=O)(=O)NCc2cccnc2)c(C)c1	inactive	
FC(F)(F)c1nc(-c2cccs2)ncc1-c1nnnn1-c1ccc(Cl)cc1	inactive	
CCc1cc2c(=O)oc(-c3ccccc3F)nc2s1		inconclusive: 31.6 µM [rising, single point]
COc1ccc(Cl)cc1NC(=O)/C=C\C(=O)O	inconclusive: 7.2%	
CC(=O)c1cccc(NC(=O)CSC(=O)c2ccccc2)c1		inconclusive: 13 µM [falling, partial curve]
Nc1cc2sc(-c3ccc(C(=O)O)cc3)nc2cc1Cl		inconclusive: 10.3 µM [rising, partial curve, poor fit]
COc1ccc(N(CC(=O)NC2CCCCCC2)S(=O)(=O)c2c(C)nn(C)c2C)cc1	inactive	
COc1ccc(C2=NOC(Cn3nc(-c4ccccc4)cc3C(=O)NCc3ccccc3OC)C2)cc1 (stereo unspecified)	inactive	
Brc1ccc2nc(N3CCN(c4ccccc4)CC3)sc2c1		inconclusive: 1.12 µM [rising, full curve, poor fit]
O=S(=O)(c1cccc(Cn2nnc(-c3ccc(F)cc3)n2)c1)N1CCOCC1	inconclusive: 0.736%	
O=C(Nc1ccccc1)c1ccc2snnc2c1		inconclusive: 35.5 µM [falling, single point]
CCc1sc(Nc2ccc(Cl)cc2)nc1-c1cc2cccc(OC)c2oc1=O		inconclusive: 12.6 µM [falling, partial curve]
COC(=O)c1ccc(COc2ccc(/C=N/Nc3cccc(C(=O)O)c3)cc2)cc1		inconclusive: 17.8 µM [falling, partial curve]
COc1ccc(/C(=N/Nc2ncnc3ccccc23)C(=O)O)cc1	inactive	
CC(=O)N/C(=C\c1ccccc1)C(=O)OCc1ccc(C)cc1	inconclusive: 4.92%	
O=C(O)CCCNc1ccc(S(=O)(=O)Nc2ccccc2C(=O)O)cc1C(=O)O	inactive	
O=C(Nc1ccc(F)cc1)OCCOc1ccc(Br)cc1	inconclusive: 13.8%	
CCN(CC)C(=S)SCc1csc(CC(=O)Nc2ccccc2C)n1	inactive	
CCCCCNC(=O)CN(c1ccc2c(c1)OCO2)S(C)(=O)=O	inconclusive: -115%	
COc1cccc(NC(=O)CSc2nnc(-c3cc(C)n(-c4ccccc4)c3C)o2)c1		inconclusive: 12.6 µM [falling, partial curve, poor fit]
CC[C@@]12C(=O)N(c3ccc(C)cc3)C(=O)N1[C@H](c1ccc(OC)cc1)[C@@H]1C(=O)N(C(C)(C)C)C(=O)[C@@H]12	inactive	
CCC(CC)NC(=O)c1ccccc1Oc1ccccc1		inconclusive: 0.164 µM [rising, full curve, poor fit]
O=c1oc2ccccc2nc1/C=C(O)/C=C\c1ccccc1		inconclusive: 13 µM [falling, partial curve]
CCCNC(=S)NC1CC2CCC(C1)N2Cc1ccccc1 (stereo unspecified)	inactive	
COc1ccc(S(=O)(=O)n2cnc3cc(C)c(C)cc32)cc1C	inconclusive: -11.9%	

For convenience, some entries already given.
SMILES	activity change, negative = inhibition	Potency
COc1ccc(Cl)cc1NC(=O)/C=C\C(=O)O	inconclusive: 7.2%	
CC(=O)c1cccc(NC(=O)CSC(=O)c2ccccc2)c1		inconclusive: 13 µM [falling, partial curve]
Nc1cc2sc(-c3ccc(C(=O)O)cc3)nc2cc1Cl		inconclusive: 10.3 µM [rising, partial curve, poor fit]
COc1ccc(N(CC(=O)NC2CCCCCC2)S(=O)(=O)c2c(C)nn(C)c2C)cc1	inactive	
COc1ccc(C2=NOC(Cn3nc(-c4ccccc4)cc3C(=O)NCc3ccccc3OC)C2)cc1 (stereo unspecified)	inactive	
Brc1ccc2nc(N3CCN(c4ccccc4)CC3)sc2c1		inconclusive: 1.12 µM [rising, full curve, poor fit]
O=S(=O)(c1cccc(Cn2nnc(-c3ccc(F)cc3)n2)c1)N1CCOCC1	inconclusive: 0.736%	
O=C(Nc1ccccc1)c1ccc2snnc2c1		inconclusive: 35.5 µM [falling, single point]
CCc1sc(Nc2ccc(Cl)cc2)nc1-c1cc2cccc(OC)c2oc1=O		inconclusive: 12.6 µM [falling, partial curve]
COC(=O)c1ccc(COc2ccc(/C=N/Nc3cccc(C(=O)O)c3)cc2)cc1		inconclusive: 17.8 µM [falling, partial curve]
COc1ccc(/C(=N/Nc2ncnc3ccccc23)C(=O)O)cc1	inactive	

Reference: PubChem BioAssay AID493014 (National Center for Advancing Translational Sciences (NCATS), 2011)
